US20220112233A1 (FUJIFILM CORPORATION, priority 2019, published 2022)

Test: general procedure: solution-phase peptide synthesis; COMU; PyAOP
Details: coupling step

| Substance | step yield |
| --- | --- |
| Fmoc-MeNle-Arg(Pbf)-Cys(Trt)-Gly-O-2NaphTAG (1) | 96.5% |
| Fmoc-MeNle-MeNle-Arg(Pbf)-Cys(Trt)-Gly-O-2NaphTAG (1) | 99.4% |
